Results are given in words; binding and its absence hold for the method and conditions named. A result given as binding can be weak or reduced; the word gives no strength. Sequences can lack the tags named with a protein.

Here are results for one substance from article PMC9542535.

Test [1] has as its target T1, VnfA3, bacterial two-hybrid fusion (Azotobacter vinelandii) (UniProt C1DIZ6).
T1 sequence: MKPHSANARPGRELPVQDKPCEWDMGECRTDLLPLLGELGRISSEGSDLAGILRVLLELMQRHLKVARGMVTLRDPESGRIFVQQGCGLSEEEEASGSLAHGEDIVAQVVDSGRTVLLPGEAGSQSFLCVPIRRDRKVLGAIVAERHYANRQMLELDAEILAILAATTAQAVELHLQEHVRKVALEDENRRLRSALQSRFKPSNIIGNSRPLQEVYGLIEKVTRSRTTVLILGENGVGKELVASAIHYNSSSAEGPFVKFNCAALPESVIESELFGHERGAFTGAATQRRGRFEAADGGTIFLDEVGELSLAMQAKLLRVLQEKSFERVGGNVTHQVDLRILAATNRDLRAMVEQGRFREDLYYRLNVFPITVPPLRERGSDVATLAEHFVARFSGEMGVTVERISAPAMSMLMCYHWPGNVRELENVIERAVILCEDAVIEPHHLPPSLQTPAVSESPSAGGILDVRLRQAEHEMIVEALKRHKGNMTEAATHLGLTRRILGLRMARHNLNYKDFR
Briefly: two-hybrid; bacterial adenylate cyclase two-hybrid (BACTH) in E. coli BTH101, T18 and T25 fusions, read out by β-galactosidase activity (Miller Units).

Test [2] addresses T2, VnfA1 (vanadium nitrogenase activator VnfA), bacterial two-hybrid fusion (Azotobacter vinelandii) (UniProt P12627).
T2 sequence: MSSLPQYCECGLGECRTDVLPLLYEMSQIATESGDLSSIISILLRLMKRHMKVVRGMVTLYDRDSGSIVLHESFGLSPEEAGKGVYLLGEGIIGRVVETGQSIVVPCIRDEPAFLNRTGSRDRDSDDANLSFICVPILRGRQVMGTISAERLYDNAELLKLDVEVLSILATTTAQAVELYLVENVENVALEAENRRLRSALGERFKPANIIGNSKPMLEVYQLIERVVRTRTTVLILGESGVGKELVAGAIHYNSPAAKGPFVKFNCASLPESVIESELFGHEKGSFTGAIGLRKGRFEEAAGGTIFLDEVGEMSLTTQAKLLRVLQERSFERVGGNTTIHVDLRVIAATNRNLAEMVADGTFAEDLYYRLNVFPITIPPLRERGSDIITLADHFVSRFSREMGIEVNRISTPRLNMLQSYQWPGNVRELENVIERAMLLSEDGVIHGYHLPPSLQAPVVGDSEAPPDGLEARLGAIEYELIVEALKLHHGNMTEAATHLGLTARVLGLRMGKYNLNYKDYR
The description is as above.

Consider “VnfZ (Avin_47110), bacterial two-hybrid fusion (from UniProt C1DIZ7)”, for which the binding result in test [1] and in test [2] was “binds” each time.
